# According to patent US20120164756A1, “ASPIRIN ASSAY” (RANDOX LABORATORIES LIMITED, priority 2009, published 2012):
# At least one compound was matched to its structure with a doubt left.
# Tested on: antibodies raised from SUA-BTG
# Assay: Biochip-based competitive immunoassay (salicyluric acid dose-response curve and cross-reactivity profile)
# Assay type: binding, sheep
# Method: In order to generate polyclonal antisera, the immunogen (prepared in Example 2) was mixed with primary complete Freund's Adjuvant (Sigma) and injected into a host sheep to provide target-specific polyclonal antisera. On a monthly basis the immunogen (with incomplete Freund's Adjuvant) was injected into the sheep. The host animal was bled to yield a suitable volume of specific antiserum. IgG was then extracted from the antisera via Caprylic acid/ammonium sulphate precipitation of immunoglobulin.
# Nine calibrator solutions of salicyluric acid (0-5.00 μg/ml) were prepared in calibrator buffer for standard curves. Cross-reactants (aspirin, 4-aminosalcylic acid, benzoic acid, diflusinal, gentisic acid, gentisuric acid, ibuprofen, methyl salicylate, salicylic acid and salsalate) were diluted in calibrator buffer (0-350 μg/ml). Assay diluent (155 μl), sample/antigen (25 μl), and diluted conjugate (Hapten 1-HRP 120 μl) were added to biochips wells. Biochips were incubated for 30 min at 30° C. in a thermoshaker at 370 rpm, and then washed with TBST buffer (2 quick washes followed by 4 washes with 2 min intervals). Biochips were developed with 250 μl luminol plus: peroxide (1:1) for 2 min in the dark, and were then imaged on the Randox Investigator (2×60 sec images).
smiles,measurement,setting,value
"O=C(O)CNC(=O)c1ccccc1O [Salicyluric acid, salicyluric acid]",% Cross-reactivity,Concentration 5 μg/ml,100%
same,B/B0,SUA standard 0.04 μg/ml,61%
same,Mean RLU,SUA standard 0.04 μg/ml,8448 RLU
same,B/B0,SUA standard 0.08 μg/ml,44%
same,Mean RLU,SUA standard 0.08 μg/ml,6145 RLU
same,B/B0,SUA standard 0.16 μg/ml,32%
same,Mean RLU,SUA standard 0.16 μg/ml,4443 RLU
same,B/B0,SUA standard 0.31 μg/ml,21%
same,Mean RLU,SUA standard 0.31 μg/ml,2932 RLU
same,B/B0,SUA standard 0.63 μg/ml,12%
same,Mean RLU,SUA standard 0.63 μg/ml,1616 RLU
same,B/B0,SUA standard 1.25 μg/ml,7%
same,Mean RLU,SUA standard 1.25 μg/ml,928 RLU
same,B/B0,SUA standard 2.50 μg/ml,3%
same,Mean RLU,SUA standard 2.50 μg/ml,451 RLU
same,B/B0,SUA standard 5.00 μg/ml,1%
same,Mean RLU,SUA standard 5.00 μg/ml,204 RLU
